This note sets out measurements from publication PMC8384837.

Changes are numbered by the printed parent chain. The list shows a part of the results. At the low end of the ranking the order means little.

Conditions in all cases: yeast three-hybrid, YBZ-1, SC-Leu-His + 0.5 mM 3-AT, 4 days
Assay [1] deals with T1, PUM1 PUF domain R6-CWC N1043C + Y1044W + Q1047C (UniProt Q14671).
T1 sequence: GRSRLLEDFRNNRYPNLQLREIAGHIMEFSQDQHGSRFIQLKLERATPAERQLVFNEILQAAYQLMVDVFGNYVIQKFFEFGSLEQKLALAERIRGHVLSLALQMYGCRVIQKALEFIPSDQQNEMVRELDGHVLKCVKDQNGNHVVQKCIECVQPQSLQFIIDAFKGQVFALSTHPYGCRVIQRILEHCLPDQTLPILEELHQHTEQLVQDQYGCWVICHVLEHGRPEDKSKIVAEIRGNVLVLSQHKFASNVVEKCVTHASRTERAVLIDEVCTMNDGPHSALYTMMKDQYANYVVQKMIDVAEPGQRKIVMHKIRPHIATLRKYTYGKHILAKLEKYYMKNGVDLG

The target in assay [2] is T2, PUM1 PUF domain R6-CWV N1043C + Y1044W + Q1047V (UniProt Q14671).
T2 sequence: T1 sequence with C220V

In assay [3] the target is T3, PUM1 PUF domain R6-CWW N1043C + Y1044W + Q1047W (UniProt Q14671).
T3 sequence: T1 sequence with C220W

For assay [4], the target named is T4, PUM1 PUF domain R6-CYV N1043C + Q1047V (UniProt Q14671).
T4 sequence: T1 sequence with W217Y, C220V

In assay [5] the target is T5, PUM1 PUF domain R6-DWG N1043D + Y1044W + Q1047G (UniProt Q14671).
T5 sequence: T1 sequence with C216D, C220G

Assay [6] deals with T6, PUM1 PUF domain R6-FHR N1043F + Y1044H + Q1047R (UniProt Q14671).
T6 sequence: T1 sequence with C216F, W217H, C220R

Assay [7] addresses T7, PUM1 PUF domain R6-FYA N1043F + Q1047A (UniProt Q14671).
T7 sequence: T1 sequence with C216F, W217Y, C220A

The target of assay [8] is T8, PUM1 PUF domain R6-GFM N1043G + Y1044F + Q1047M (UniProt Q14671).
T8 sequence: T1 sequence with C216G, W217F, C220M

Assay [9] deals with T9, PUM1 PUF domain R6-GHR N1043G + Y1044H + Q1047R (UniProt Q14671).
T9 sequence: T1 sequence with C216G, W217H, C220R

For assay [10], the target named is T10, PUM1 PUF domain R6-GYR N1043G + Q1047R (UniProt Q14671).
T10 sequence: T1 sequence with C216G, W217Y, C220R

Assay [11] deals with T11, PUM1 PUF domain R6-HFG N1043H + Y1044F + Q1047G (UniProt Q14671).
T11 sequence: T1 sequence with C216H, W217F, C220G

For assay [12], the target named is T12, PUM1 PUF domain R6-HYR N1043H + Q1047R (UniProt Q14671).
T12 sequence: T1 sequence with C216H, W217Y, C220R

For assay [13], the target named is T13, PUM1 PUF domain R6-HYS N1043H + Q1047S (UniProt Q14671).
T13 sequence: T1 sequence with C216H, W217Y, C220S

In assay [14] the target is T14, PUM1 PUF domain R6-IFM N1043I + Y1044F + Q1047M (UniProt Q14671).
T14 sequence: T1 sequence with C216I, W217F, C220M

Assay [15] concerns the target T15, PUM1 PUF domain R6-IWK N1043I + Y1044W + Q1047K (UniProt Q14671).
T15 sequence: T1 sequence with C216I, C220K

Assay [16] addresses T16, PUM1 PUF domain R6-IWR N1043I + Y1044W + Q1047R (UniProt Q14671).
T16 sequence: T1 sequence with C216I, C220R

In assay [17] the target is T17, PUM1 PUF domain R6-KFG N1043K + Y1044F + Q1047G (UniProt Q14671).
T17 sequence: T1 sequence with C216K, W217F, C220G

Assay [18] has as its target T18, PUM1 PUF domain R6-KWR N1043K + Y1044W + Q1047R (UniProt Q14671).
T18 sequence: T1 sequence with C216K, C220R

The target of assay [19] is T19, PUM1 PUF domain R6-LFG N1043L + Y1044F + Q1047G (UniProt Q14671).
T19 sequence: T1 sequence with C216L, W217F, C220G

The target of assay [20] is T20, PUM1 PUF domain R6-LWC N1043L + Y1044W + Q1047C (UniProt Q14671).
T20 sequence: T1 sequence with C216L

As for “GGCUAGAACUAGUGGAUCCCCCGGCGCCCGGCGGCUCGAGCCCGGGUAAGUGGAAAUAGUCUGCAUGCCGCCGGGCGCCAUGCCUGCAGGUCGACUCUAGAAAACAUG”, the binding signal (log2 enrichment (interaction score)) in assay [1] is less than -6.53; in assay [2], less than -8.26; in assay [3] it was less than -8.53; in [4], less than -9.12; in assay [5] it was less than -9.36; in [6], less than -8.45. Besides, the binding signal (log2 enrichment (interaction score)) in assay [7] was less than -7.04; in [8], less than -7.48; in assay [9], less than -6.68; in assay [10], less than -8.97; in [11] it was less than -6.74; in assay [12], less than -7.1. For the same sequence, the binding signal (log2 enrichment (interaction score)) in assay [13] was less than -7.71; in assay [14] it was less than -8.09; in assay [15], less than -7.75; in [16], less than -7.27; in assay [17] it was less than -8.3; in assay [18], less than -8.86. Further, the binding signal (log2 enrichment (interaction score)) was less than -8.54 in assay [19] and less than -6.88 in [20].
